Assay results published in patent US20030186888A1, “Diastereo analog of peptide SPFK-amide with selective anti-microbial activity and a method thereof” (priority 2002, published 2003).
Part of at least one peptide drawing is inferred or uncertain, most often the ends. Square brackets hold non-standard residues; d marks the D form. Peptide text beside a SMILES is read from it.

Tested on: E. coli W 160.37 inner membrane
Assay: Inner membrane permeabilization (ONPG influx)
Type: cell-based
Details: 20 fig/ml peptide, FIG. 4

CC[C@H](C)[C@H](NC(=O)[C@H](Cc1c[nH]c2ccccc12)NC(=O)[C@H](CCCCN)NC(=O)[C@H](CO)NC(=O)[C@@H](CC(C)C)NC(=O)[C@H](Cc1ccccc1)NC(=O)[C@@H](NC(=O)[C@H](CCCCN)NC(=O)[C@@H](CC(C)C)NC(=O)[C@H](CC(C)C)NC(=O)[C@H](CCCCN)NC(=O)[C@@H]1CCCN1)[C@@H](C)O)C(=O)NCC(=O)O [DSac] (H-PKL[dL]KTF[dL]SKWIG-OH)
permeabilization of the inner membrane (IM) (in words): inactive
